Test results reported in patent EP4796567A2.
Changes are numbered by the printed parent chain. These are yes or no findings as the source states them, for the method shown. Some binding calls cover weakened binding; strength is not graded here.

Amino acid sequences for entries named in this document (tags omitted). A change or cut given only in a name is not applied to a line headed by its entry.
UniProt P11912: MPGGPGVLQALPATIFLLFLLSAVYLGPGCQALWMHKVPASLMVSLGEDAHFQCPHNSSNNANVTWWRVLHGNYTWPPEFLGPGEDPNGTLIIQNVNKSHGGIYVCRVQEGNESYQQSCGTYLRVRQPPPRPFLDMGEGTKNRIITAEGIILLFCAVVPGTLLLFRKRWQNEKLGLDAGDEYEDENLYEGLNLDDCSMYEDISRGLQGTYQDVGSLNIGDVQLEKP

B1: affinity matured anti-CD79 antibody LB495/521 (antibody, V domains shown)
VH: QVQLVQSGAEVKKPGASVKVSCKASGYAFSYSWMNWVRQAPGQGLEWMGRIYPENGDTNYNGKFKGRVTMTRDTSISTAYMELSRLRSDDTAVYYCARWVYGYPHFDYWGQGTLVTVSS
VL: DVVMTQSPLSLPVTLGQPASISCKSSQSLLDSDGKTYLNWLQQRPGQSPRRLIYLVSKLDSGVPDRFSGSGSGTDFTLKISRVEAEDVGVYYCWQGTHVPFTFGGGTKVEIK
B2: humanized anti-CD79 antibody LB517/LB519 (antibody, V domains shown)
VH: B1 VH with Y103L
VL: B1 VL with V99L
B3: affinity matured anti-CD79 antibody LB495/518 (antibody, V domains shown)
VH: B1 VH
VL: B1 VL with V99I
B4: affinity matured anti-CD79 antibody LB517/521 (antibody, V domains shown)
VH: B1 VH with Y103L
VL: B1 VL
B5: affinity matured anti-CD79 antibody LB495/520 (antibody, V domains shown)
VH: B1 VH
VL: B1 VL with V99R
B6: affinity matured anti-CD79 antibody LB495/519 (antibody, V domains shown)
VH: B1 VH
VL: B1 VL with V99L
B7: affinity matured anti-CD79 antibody LB517/520 (antibody, V domains shown)
VH: B1 VH with Y103L
VL: B1 VL with V99R
B8: affinity matured anti-CD79 antibody LB517/518 (antibody, V domains shown)
VH: B1 VH with Y103L
VL: B1 VL with V99I
B9: affinity matured anti-CD79 antibody LB517/PRI47 (antibody, V domains shown)
VH: B1 VH with Y103L
VL: B1 VL with V99F
B10: phage display clone LB511-B6 (light chain CDR3 library, paired with H1) (antibody, V domains shown)
VH: B1 VH
VL: B1 VL
B11: phage display clone LB511-A9 (light chain CDR3 library, paired with H1) (antibody, V domains shown)
VH: B1 VH
VL: B1 VL with V99I
B12: phage display clone LB511-F6 (light chain CDR3 library, paired with H1) (antibody, V domains shown)
VH: B1 VH
VL: B1 VL with V99L
B13: phage display clone LB511-F11 (light chain CDR3 library, paired with H1) (antibody, V domains shown)
VH: B1 VH
VL: B1 VL with V99R
B14: phage display clone LB509-C2 (heavy chain CDR3 library, paired with L2) (antibody, V domains shown)
VH: B1 VH with Y103L
VL: B1 VL with V99F
B15: engineered anti-CD79 antibody LB631/519 (antibody, V domains shown)
VH: B1 VH with N61A, Y103L
VL: B1 VL with V99L
B16: engineered anti-CD79 antibody LB632/519 (antibody, V domains shown)
VH: B1 VH with N55S, N61A, Y103L
VL: B1 VL with V99L
B17: engineered anti-CD79 antibody LB630/519 (antibody, V domains shown)
VH: B1 VH with N55S, Y103L
VL: B1 VL with V99L
B18: phage display clone LB509-G2 (heavy chain CDR3 library, paired with L2) (antibody, V domains shown)
VH: B1 VH with F106L
VL: B1 VL with V99F
B19: phage display clone LB510-G5 (heavy chain library, paired with L2) (antibody, V domains shown)
VH: B1 VH with M34V
VL: B1 VL with V99F
B20: phage display clone LB512-A7 (light chain library, paired with H1) (antibody, V domains shown)
VH: B1 VH
VL: B1 VL with Q17L, V99F
B21: phage display clone LB510-C7 (heavy chain library, paired with L2) (antibody, V domains shown)
VH: B1 VH with S30G
VL: B1 VL with V99F

Target: CD79 (UniProt P11912)
Experiment: binding kinetics

Binder | binding
B1 | binds
B2 | binds
B3 | binds
B4 | binds
B5 | binds
B6 | binds
B7 | binds
B8 | binds
B9 | binds

Target: CD79 (UniProt P11912)
Experiment: confirmatory dilution ELISA

Binder | binding
B10 | binds
B11 | binds
B12 | binds
B13 | binds
B14 | binds

Target: CD79 (UniProt P11912)
Experiment: antigen binding kinetics (Table 3)

Binder | binding
B15 | binds
B16 | binds
B17 | binds

Target: CD79 (UniProt P11912)
Experiment: binding kinetics of full length IgG (Table 2)

Binder | binding
B1 | binds
B2 | binds
B3 | binds
B4 | binds
B5 | binds
B6 | binds
B7 | binds
B8 | binds
B9 | binds

Target: CD79 (UniProt P11912)
Experiment: competition ELISA of phage library clones, compared with parent H1L2

Binder | binding
B10 | binds
B18 | binds
B19 | binds
B20 | binds
B21 | binds
B11 | binds
B12 | binds
B13 | binds
B14 | binds
